# Measured values from patent publication US20190194338A1.
# Amino acid sequences for entries named in this document (tags omitted). A change or cut given only in a name is not applied to a line headed by its entry.
# UniProt Q02223: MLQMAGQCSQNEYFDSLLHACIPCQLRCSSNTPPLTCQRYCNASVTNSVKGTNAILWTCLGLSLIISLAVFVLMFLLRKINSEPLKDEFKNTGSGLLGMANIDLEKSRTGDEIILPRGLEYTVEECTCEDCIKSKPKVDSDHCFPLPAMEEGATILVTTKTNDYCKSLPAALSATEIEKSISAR
# These are yes or no findings as the source states them, for the method shown. Some results given as binding are weak or reduced against the parent protein; the word gives no strength.
# Legend:
# [1] = biological target: human BCMA expressed on cells (NCI-H929, U266, JJN3, 293:BCMA) (human) (UniProt Q02223); experiment: cell binding, NCI-H929 cells, 3-pt assay
# [2] = biological target: human BCMA expressed on cells (NCI-H929, U266, JJN3, 293:BCMA) (human) (UniProt Q02223); experiment: cell binding, U266 cells, full range of concentrations
Binder,binding [1],binding [2]
"hSG16.17 vH6 vK2 (antibody, V domains shown) VH: QVQLVQSRAEVKKPGASVKLSCKASGYTFTDYYMHWVRQAPGQGLEWIGIINPNSGYTSYAQKFQGRVTMTADKSTNTAYVELSSLRSEDTAVYFCTRYMWERVTGFFDFWGQGTMVTVSS VL: DIQMTQSPSSVSASVGDRVTITCLASEDISDDLAWYQQKPGKAPKVLVYTTSSLQSGVPSRFSGSGSGTDFTLTISSLQPEDFATYFCQQTYKFPPTFGGGTKVEIKR",binds,binds
"hSG16.17 vH6 vK3 (antibody, V domains shown) VH: QVQLVQSRAEVKKPGASVKLSCKASGYTFTDYYMHWVRQAPGQGLEWIGIINPNSGYTSYAQKFQGRVTMTADKSTNTAYVELSSLRSEDTAVYFCTRYMWERVTGFFDFWGQGTMVTVSS VL: DIQMTQSPSSVSASVGDRVTITCRASEDISDDLAWYQQKPGKAPKVLVYTTSSLQSGVPSRFSGSGSGTDFTLTISSLQPEDFATYFCQQTYKFPPTFGGGTKVEIKR",binds,binds
"hSG16.17 vH6 vK4 (antibody, V domains shown) VH: QVQLVQSRAEVKKPGASVKLSCKASGYTFTDYYMHWVRQAPGQGLEWIGIINPNSGYTSYAQKFQGRVTMTADKSTNTAYVELSSLRSEDTAVYFCTRYMWERVTGFFDFWGQGTMVTVSS VL: DIQMTQSPSSVSASVGDRVTITCLASEDISDDLAWYQQKPGKAPKVLVYTTSRLQSGVPSRFSGSGSGTDFTLTISSMQPEDFADYFCQQTYKFPPTFGGGTKVEIKR",binds,binds
"hSG16.17 vH6 vK5 (antibody, V domains shown) VH: QVQLVQSRAEVKKPGASVKLSCKASGYTFTDYYMHWVRQAPGQGLEWIGIINPNSGYTSYAQKFQGRVTMTADKSTNTAYVELSSLRSEDTAVYFCTRYMWERVTGFFDFWGQGTMVTVSS VL: DIQMTQSPSSVSASVGDRVTITCRASEDISDDLAWYQQKSGKAPKVLVYTTSSLQSGVPSRFSGSGSGTDFTLTISSLQPEDFATYFCQQTYKFPPTFGGGTKVEIKR",binds,binds
